Data published in PubChem BioAssay AID1259415 (National Center for Advancing Translational Sciences (NCATS), 2018).
Screen size: about 410,000 compounds; about 18,000 (4.4%) were called active. Inconclusive means that the source gave no clear call. Such entries were picked first, then a sample of the others. No stated cut-off is given here; in the data, active means activity change below about -60%; inconclusive means no clear call, values can overlap the other calls; inactive means above about -39%.
On the % scale 0 is the no-effect control and ±100 the full control effect.

Test: qHTS Assay for inhibitors of the human cytomegalovirus (HCMV)
Settings: HFF cells, HCMV-luciferase reporter, 72 h; at 57.5 µM; active compounds read low
Method in brief: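 HFF cells seeded 16 h at 37C, treated with compounds, infected with luciferase-reporter HCMV at MOI 1 PFU/cell; luciferase read at 72 h post infection, normalized to buffer-only and Salinomycin controls.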
With C[C@H](NC(=O)[C@H](Cc1ccccc1)n1c(=O)[nH]c2ccccc2c1=O)C(=O)N1CCC[C@H]1C(=O)O the activity change, negative = inhibition was inconclusive: -41.1%.
In the case of O=C(c1ccc(Cl)c(S(=O)(=O)N2CCOCC2)c1)N1CCCCCC1, the activity change, negative = inhibition is reported as inactive: -9.59%.
With CCC(C)NC(=O)CCS(=O)(=O)c1ccc(Br)s1 (stereo not drawn) the activity change, negative = inhibition was inconclusive: -51.4%.
With COC(=O)c1ccc(NC(=O)CC2C(=O)N(c3cccc(OC)c3)C(=O)N2Cc2cccc(OC)c2)cc1 (stereo not drawn) the activity change, negative = inhibition was inconclusive: -51.6%.
For Cc1cc(NC(c2cccnc2)c2ccc3cccnc3c2O)no1 (stereo not drawn), the activity change, negative = inhibition was active: -104%.
For COc1ccc(NC(=O)NCc2ccc3c(c2)OCO3)cc1, the activity change, negative = inhibition was inconclusive: -50.9%.
With Fc1ccc(NC(=S)Nc2ccc(Cl)cc2Cl)cc1 the activity change, negative = inhibition was inconclusive: -54.4%.
In the case of CN(C)c1ccc(/C=N/NC(=O)c2ccnn2C)cc1, the activity change, negative = inhibition is reported as inactive: 17.1%.
In the case of Cc1cc(=O)[nH]c(N/N=C/c2c[nH]c3ccccc23)n1, the activity change, negative = inhibition is reported as inactive: 40.5%.
With CCN(C[C@H]1N[C@@](Cc2ccccc2)(C(=O)OC)[C@H]2C(=O)N(C)C(=O)[C@@H]12)S(=O)(=O)c1ccc(C(F)(F)F)cc1 the activity change, negative = inhibition was inactive: -7.77%.
With Cc1ccc2occ(/C=N/NC(=O)c3ccccc3C)c(=O)c2c1 the activity change, negative = inhibition was inconclusive: -49.9%.
For COc1ccc(Br)cc1CN(C)CC(=O)Nc1cccc(S(=O)(=O)N2CCCC2)c1, the activity change, negative = inhibition was inconclusive: -48.5%.
With CCN1CCN(C(=S)NC(=O)c2cc(OC)c(OC)c(OC)c2)CC1 the activity change, negative = inhibition was inactive: 30.6%.
For Cn1nc(C(F)(F)F)c2cc(C(=O)Nc3ccc(Cl)cc3)sc21, the activity change, negative = inhibition was inconclusive: -44.8%.
For CC1CCCN(S(=O)(=O)c2ccc(C(=O)Nc3nnc(C4CC4)o3)cc2)C1 (stereo not drawn), the activity change, negative = inhibition was inconclusive: -45.5%.
For COc1cccc2c(Nc3ccccc3C)cc(C)nc12, the activity change, negative = inhibition was inconclusive: -42.6%.
For O=C(Nc1cccc(Cl)c1)Nc1ccc2c(c1)C(=O)OC2, the activity change, negative = inhibition was inconclusive: -50.1%.
In the case of Cc1cc(C)c(NS(=O)(=O)c2ccccc2)c(C)c1, the activity change, negative = inhibition is reported as inactive: -21.7%.
With Oc1ccc(-c2[nH]ncc2-c2cnn(-c3ccccc3)c2)c(O)c1 the activity change, negative = inhibition was inconclusive: -42.1%.
In the case of Cc1cc(NC(=O)CN(C)S(=O)(=O)c2ccc3c(c2)CCC(=O)N3)ccc1Br, the activity change, negative = inhibition is reported as inconclusive: -52.8%.
In the case of O=C(C[C@H]1C/C=C\C[C@H](Cc2ccc(F)cc2)C(=O)O[C@@H](c2ccccc2)CNC1=O)NCCO, the activity change, negative = inhibition is reported as inactive: 14.9%.
With Cc1cccc(-c2ccc3ncnc(NCc4cccs4)c3c2)c1 the activity change, negative = inhibition was active: -76.3%.
For CCOC(=O)c1nc(Nc2cccc(C)c2)c2ccccc2n1, the activity change, negative = inhibition was inconclusive: -48.5%.
In the case of Cc1ccc(C(=O)/C=C/Nc2ccccn2)cc1, the activity change, negative = inhibition is reported as inconclusive: -53.8%.
In the case of COc1cc(/C=N/NC(=O)Nc2cccc3nsnc23)cc(OC)c1OC, the activity change, negative = inhibition is reported as inactive: -4.17%.
In the case of O=C(CSc1nnc(Cc2ccccc2)o1)Nc1ccc(N2CCOCC2)cc1, the activity change, negative = inhibition is reported as inactive: -39.3%.
For CC1S/C(=C(\C#N)C(=O)NCc2ccco2)N(c2ccc(F)cc2)C1=O (stereo not drawn), the activity change, negative = inhibition was active: -96.8%.
For COc1ccc(-c2nnc(SC(=O)N3c4ccccc4Sc4ccccc43)o2)cc1, the activity change, negative = inhibition was inactive: 10.6%.
In the case of O=C(Nc1cccnc1)C1Cc2c(-c3ccc4c(c3)OCO4)ccnc2O1 (stereo not drawn), the activity change, negative = inhibition is reported as inconclusive: -59%.
For O=S(=O)(c1ccccc1F)N1CCN(C(=S)NCc2ccccc2)CC1, the activity change, negative = inhibition was inactive: -31.3%.
With CCOC(=O)N1CCN(c2nnc(-c3ccccc3)c3ccccc23)CC1 the activity change, negative = inhibition was inconclusive: -50.3%.
In the case of O=C(CSc1nc2[nH]c(=O)cc(O)c2s1)Nc1nccs1, the activity change, negative = inhibition is reported as inconclusive: -43.7%.
For COC(=O)c1ccc2c(=O)n(-c3ccc(OC)cc3)c(=S)[nH]c2c1, the activity change, negative = inhibition was inconclusive: -47.4%.
With Cc1ccc(C(=O)NC(=S)Nc2ccc(S(=O)(=O)N(C)c3ccccc3)cc2)cc1 the activity change, negative = inhibition was inconclusive: -41.6%.
For CC(C)(C)c1nnc(NC(=O)c2ccc(Cl)nc2)s1, the activity change, negative = inhibition was inactive: -12.9%.
With COc1cc(Cl)cc(/C=C/c2ccc3cccc(O)c3n2)c1OC the activity change, negative = inhibition was inconclusive: -50.3%.
For CCCn1c(=O)c2sccc2n2c(CCCC(=O)NCCOC)nnc12, the activity change, negative = inhibition was inconclusive: -47.5%.
With Cc1cc(C)c(CN2CCN(C(=O)Cn3cnc(C(=O)Nc4ccc(C)c(C)c4)n3)CC2)c(C)c1 the activity change, negative = inhibition was active: -102%.
In the case of CCCCC(=O)Nc1ccc(C(=O)NNC(=O)c2ccc(C)c(Br)c2)cc1, the activity change, negative = inhibition is reported as inactive: -20%.
For CCn1cc(CN2CCCC(CO)(Cc3ccc(F)cc3)C2)c2ccccc21 (stereo not drawn), the activity change, negative = inhibition was active: -63.6%.
For CCCSc1cc(NCCOC(=O)CCC)c([N+](=O)[O-])c2nonc12, the activity change, negative = inhibition was inconclusive: -50.7%.
In the case of COc1cccc(NS(=O)(=O)c2csc(C(N)=O)c2)c1, the activity change, negative = inhibition is reported as inconclusive: -53%.
